ClpP1P2: 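Protease assay of ClpP1P2, read by the AMC dye that it sets free. Target: ClpP1P2, Mycobacterium tuberculosis (UniProt P9WPC5 and UniProt P9WPC3). Compounds at 50 µM. Higher reads as stronger inhibition, judged from the few compounds that gave an IC50. Most other retested compounds had strongly negative values. Of about 69,000 compounds tested this way, about 10 (0.015%) reached 50% or more in at least one test.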
Leishmania in macrophages: 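Cell assay of Leishmania donovani living inside macrophages; the read-out is not stated. Compounds at 30 µM. Direction is inferred from retests: higher values go with stronger inhibition. About 69,000 compounds were tested under these conditions; 1.5% (about 1,000) showed 50% or more at least once.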
Pks13 thioesterase: 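Polyketide synthase Pks13, Mycobacterium tuberculosis (UniProt I6X8D2). Enzyme assay of the thioesterase domain of polyketide synthase 13; the read-out is not stated. Concentration: 30 µM. Higher reads as stronger inhibition (inferred from which compounds were picked for retests). Size under these conditions: about 67,000 compounds, about 300 of them at 50% or above in at least one test.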
PfKRS1: 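Lysine-tRNA ligase, Plasmodium falciparum 3D7 (UniProt Q8IDJ8). Enzyme assay of the cytosolic lysyl-tRNA synthetase in 384-well plates, read by luminescence. Compounds at 30 µM. Higher reads as stronger inhibition, judged from the few compounds that gave an IC50. About 69,000 compounds were tested under these conditions; 0.071% (about 49) showed 50% or more at least once.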
Toxoplasma: 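Assay of Toxoplasma gondii numbers, read through their beta-galactosidase reporter with a colour substrate. Tested at 10 µM. The record gives no direction; the compounds picked for IC50 retests had high values, so higher reads as fewer parasites. Of about 67,000 compounds tested this way, about 260 (0.38%) reached 50% or more in at least one test.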

Chains of the proteins cited; added tags and fusions are not shown. Residues count along the entry.
UniProt P9WPC5, whole entry: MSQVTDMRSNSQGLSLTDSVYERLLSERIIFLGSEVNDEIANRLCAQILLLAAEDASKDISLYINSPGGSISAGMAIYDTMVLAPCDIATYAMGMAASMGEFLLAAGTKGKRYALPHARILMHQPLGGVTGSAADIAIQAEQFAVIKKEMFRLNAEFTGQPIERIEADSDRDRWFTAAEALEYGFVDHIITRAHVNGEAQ
UniProt P9WPC3, whole entry partner: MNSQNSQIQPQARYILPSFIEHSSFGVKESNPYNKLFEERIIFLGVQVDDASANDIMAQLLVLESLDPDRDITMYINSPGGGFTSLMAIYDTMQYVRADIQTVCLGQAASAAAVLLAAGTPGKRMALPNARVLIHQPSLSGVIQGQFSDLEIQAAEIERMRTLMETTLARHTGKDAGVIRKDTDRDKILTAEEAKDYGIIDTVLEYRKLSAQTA
UniProt I6X8D2, whole entry: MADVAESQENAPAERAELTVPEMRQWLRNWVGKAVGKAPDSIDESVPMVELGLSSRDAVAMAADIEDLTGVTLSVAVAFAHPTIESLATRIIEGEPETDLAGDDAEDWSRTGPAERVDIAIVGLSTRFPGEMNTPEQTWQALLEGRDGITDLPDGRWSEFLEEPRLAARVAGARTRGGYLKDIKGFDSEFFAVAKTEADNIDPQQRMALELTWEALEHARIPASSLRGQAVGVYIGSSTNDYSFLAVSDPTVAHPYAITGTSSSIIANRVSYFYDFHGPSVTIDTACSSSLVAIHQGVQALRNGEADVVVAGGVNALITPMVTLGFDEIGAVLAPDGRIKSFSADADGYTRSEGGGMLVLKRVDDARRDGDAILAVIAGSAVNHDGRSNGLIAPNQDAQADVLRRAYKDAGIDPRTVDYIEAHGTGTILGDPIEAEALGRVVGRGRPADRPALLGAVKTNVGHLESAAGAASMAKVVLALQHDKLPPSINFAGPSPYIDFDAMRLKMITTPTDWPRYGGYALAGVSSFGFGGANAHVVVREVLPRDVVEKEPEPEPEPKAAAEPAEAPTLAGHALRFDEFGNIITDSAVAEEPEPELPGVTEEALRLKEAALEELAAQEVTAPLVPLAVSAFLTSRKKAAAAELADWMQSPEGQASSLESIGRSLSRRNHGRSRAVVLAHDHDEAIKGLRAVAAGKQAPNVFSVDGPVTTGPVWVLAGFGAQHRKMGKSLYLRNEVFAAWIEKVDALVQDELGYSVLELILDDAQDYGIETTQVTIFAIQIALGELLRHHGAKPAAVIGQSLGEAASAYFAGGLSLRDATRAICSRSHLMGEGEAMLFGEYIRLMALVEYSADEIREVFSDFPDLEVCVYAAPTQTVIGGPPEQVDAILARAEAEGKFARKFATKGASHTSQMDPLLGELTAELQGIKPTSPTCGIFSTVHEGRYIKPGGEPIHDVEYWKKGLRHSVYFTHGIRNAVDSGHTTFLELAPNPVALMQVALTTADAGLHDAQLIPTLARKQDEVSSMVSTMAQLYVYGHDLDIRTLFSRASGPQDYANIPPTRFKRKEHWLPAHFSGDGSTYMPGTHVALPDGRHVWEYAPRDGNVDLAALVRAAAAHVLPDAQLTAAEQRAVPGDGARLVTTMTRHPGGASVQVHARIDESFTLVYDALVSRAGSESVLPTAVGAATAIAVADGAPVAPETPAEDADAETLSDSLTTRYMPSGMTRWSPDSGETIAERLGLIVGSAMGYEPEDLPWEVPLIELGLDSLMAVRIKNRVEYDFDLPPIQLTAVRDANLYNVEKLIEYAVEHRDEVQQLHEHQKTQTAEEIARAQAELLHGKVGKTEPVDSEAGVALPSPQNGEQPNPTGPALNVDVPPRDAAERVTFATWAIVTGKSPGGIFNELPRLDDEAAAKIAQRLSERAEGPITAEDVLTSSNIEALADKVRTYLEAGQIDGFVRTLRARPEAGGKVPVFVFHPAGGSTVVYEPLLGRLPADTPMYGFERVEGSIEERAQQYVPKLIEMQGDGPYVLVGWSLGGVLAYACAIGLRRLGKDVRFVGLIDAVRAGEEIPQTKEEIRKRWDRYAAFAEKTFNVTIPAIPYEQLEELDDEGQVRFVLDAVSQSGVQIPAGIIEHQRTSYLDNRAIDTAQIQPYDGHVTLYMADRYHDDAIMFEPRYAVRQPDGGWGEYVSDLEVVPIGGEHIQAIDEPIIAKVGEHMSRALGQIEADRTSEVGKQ
UniProt Q8IDJ8, 1-583: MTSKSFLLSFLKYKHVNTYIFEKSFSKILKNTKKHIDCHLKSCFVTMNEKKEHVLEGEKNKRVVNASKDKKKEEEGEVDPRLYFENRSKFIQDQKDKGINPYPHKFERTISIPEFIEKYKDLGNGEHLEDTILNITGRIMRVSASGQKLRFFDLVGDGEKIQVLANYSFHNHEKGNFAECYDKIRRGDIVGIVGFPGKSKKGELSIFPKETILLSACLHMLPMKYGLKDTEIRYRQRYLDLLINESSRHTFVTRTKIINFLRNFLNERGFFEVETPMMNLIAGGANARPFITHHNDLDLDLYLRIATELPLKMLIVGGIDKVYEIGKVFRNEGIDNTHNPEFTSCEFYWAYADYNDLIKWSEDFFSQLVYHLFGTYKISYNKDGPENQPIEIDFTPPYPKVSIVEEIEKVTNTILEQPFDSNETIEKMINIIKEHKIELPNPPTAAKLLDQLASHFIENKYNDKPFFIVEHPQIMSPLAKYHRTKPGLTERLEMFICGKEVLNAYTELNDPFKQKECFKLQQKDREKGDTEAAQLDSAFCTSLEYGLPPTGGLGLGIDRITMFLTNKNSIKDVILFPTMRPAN

Values are the deposited “Percent Effect”, in %.
The record does not define 0% and 100%; most values in the screen are far below 50% and negative numbers occur (in some assays of this library far below -100).
This is an unselected part of the compounds tested.
Two or more numbers in one place are separate tests of the same structure; such repeats can differ widely.
A dash means the value is not listed here; it may have been measured.

SMILES | ClpP1P2 | Leishmania in macrophages | Pks13 thioesterase | PfKRS1 | Toxoplasma
COCCN1CCC(NCc2c(F)cccc2F)C1 (configuration not stated) | -35.35% | 18.71% | -17.16% | 4.55% | 10.51%
COC(=O)NCC(=O)NC1(C)CCc2ccccc2C1 (configuration not stated) | -8.071% | 11.41% | -20.63% | 2.398% | -26.89%
CN(CC1CCCC1)C(=O)c1cn(C)nc1-c1cccnc1 | -9.048% | -6.618% | 4.535% | 2.888% | 0.12%
COCCCC1CCCCN1Cc1cc(F)ccc1-n1cccn1 (configuration not stated) | -2.304% | 12.65% | 9.788% | -3.905% | -7.469%
O=S(=O)(NC1CCC12CCN(CC1CC1)CC2)c1ccccc1 (configuration not stated) | -3.404% | - | 16.36% | 0.4257% | -
Cc1nc(C)n(CC2CN(Cc3cccnc3)Cc3nccn3C2)n1.O=C(O)C(F)(F)F.O=C(O)C(F)(F)F (configuration not stated) | - | -18.48% | - | - | -16.98%
CS(=O)(=O)N1CCOCC12CCN(c1nncs1)CC2 | 17.8% | -6.395% | -18.73% | 2.715% | 10.5%
COc1ccc(-c2nnc(SC(C)C(=O)NC(C)(C)C)[nH]2)c(OC)c1 (configuration not stated) | 1.641% | 12.74% | -1.742% | 5.627% | 4.767%
COCCCNC(=O)c1ccccc1-n1cc(CN(C)C)cn1 | 1.055% | 21.06% & 21.11% | 2.102% | -1.206% | -7.295%
CC(=O)N1C[C@H]2CNC[C@@]2(C(=O)NCCCOc2cccnc2)C1 | -7.867% | - | -9.008% | 6.666% | -
CN(C)c1nccc(CNC(=O)NC(C)(C)C)n1 | -5.81% | -5.551% | -9.706% | -3.265% | -3.786%
CCN(C(c1cccnc1)c1cc(C)cc(C)c1)S(C)(=O)=O (configuration not stated) | -2.867% | 5.423% | -67.82% | 4.232% | -0.531%
Cc1cc(CNC(=O)COc2ccccc2F)c(C)o1 | -8.478% | 1.63% & 14.85% | -34.37% | -2.275% | 3.99%
Fc1ccc(CN2CCCn3cnc(COCC4CC4)c3C2)cc1 | -10.53% | - | -23.65% | 2.324% | -
[H][C@]12C[C@@H](Cn3cncn3)N(C(C)=O)[C@@]1([H])CCN(S(C)(=O)=O)C2 | - | 15.9% | - | - | 14.72%
CCc1noc(CN2CCCC(Cn3nc(C)nc3C)C2)n1 (configuration not stated) | 6.02% | 11.67% | 0.6027% | -0.7852% | -13.65%
CC(C)c1noc(OCC(=O)N2CCCCC2C)n1 (configuration not stated) | -4.723% | 1.144% | -18.3% | 7.567% | -11.23%
Cc1ccoc1C(=O)N1CCc2ncnc(-c3cnn(C)c3)c2CC1 | -8.059% | -19.35% | -29.59% | -4.954% | 6.461%
CCOC(C)c1noc(CN(C)C(=O)c2cc3ccccn3c2)n1 (configuration not stated) | 0.9571% | 7.907% | -26.37% | -1.81% | 15.94%
CC(C)[C@@H](CO)Nc1cc(-c2cn[nH]c2)ncn1 | 7.413% | 8.893% & 24.93% | 7.736% | 2.636% | -1.21%
CCN(CC)CCCNCC1CCOC(C)(C)C1 (configuration not stated) | 8% | 15.48% | -5.301% | 2.837% | 1.68%
Cc1cnn(CCNCc2csc(-c3ncccn3)n2)c1 | -21.02% | 6.35% | -31.72% | -3.722% | -1.049%
[H][C@@]12CCCC[C@]1(O)CCN(c1ncc(C)c(-c3ccnn3C)n1)C2 | - | 19.61% | - | - | 0.4464%
COc1ccc(Cl)cc1S(=O)(=O)N(C)CC(=O)Nc1ccon1 | -5.434% | 29.85% | 6.875% | 2.338% | 0.9186%
CN(C)C(=O)CN1CCC2(CCCN(Cc3cccs3)C2)C1=O (configuration not stated) | -1.724% | - | -3.696% | 1.261% | -
Cc1ccn(-c2ccc(NCc3cccnc3N3CCCCC3)nn2)n1 | -0.211% | 2.965% | -82.9% | -3.3% | 7.236%
CC(C)CC(=O)N1CCC2(CC1)OC(C(N)=O)Cn1ccnc12.O=C(O)C(F)(F)F (configuration not stated) | - | 18.86% | - | - | -27.22%
Cc1ccc(CNC2(Cc3cc(CO)on3)COC2)o1 | -17.32% | 13.95% | -1.606% | 4.817% | -2.554%
Cc1nccc([C@@H]2C[C@@H]3CCN(S(C)(=O)=O)C[C@H]3O2)n1 | -2.401% | - | -11.77% | -1.278% | -
CSc1[nH]nc(NC(=O)c2cccnc2)c1C#N | 10.41% | 11.98% | -33.29% | -1.991% | 0.801%
CCOc1ccc(Cl)c(C(=O)N2CCN(c3ncccn3)CC2)n1 | 2.631% | -1.769% | -6.366% | 0.0741% | -1.538%
O=C(NC1CC(=O)N(C2Cc3ccccc3C2)C1)c1ccoc1 (configuration not stated) | 3.24% | 2.44% | -31.59% | 1.879% | -3.061%
Cc1cccc(CS(=O)(=O)c2nnc([C@@H](N)Cc3ccccc3)o2)c1 | -14.67% | - | 7.876% | -1.086% | -
COc1nc2cc(C)ccc2cc1CN(C)Cc1cc(C)[nH]n1 | -8.661% | - | -0.3015% | 0.8252% | -
c1ccc2sc(CN3CCOC(Cn4cncn4)C3)nc2c1 (configuration not stated) | -10.75% | 13.31% | -6.871% | 4.142% | 2.24%
[H][C@@]12CS(=O)(=O)C[C@]1([H])N(Cc1cnc(C)nc1)CCN2C(=O)N(CC)CC | - | -11.9% | - | - | -
[H][C@@]12CN(C(=O)c3ccccn3)C[C@]1([H])OCC(=O)N2CC1CCCCC1 | - | 16.36% | - | - | 9.36%
CCCOc1ccccc1NCC(=O)Nc1ccc(CC)cc1 | -6.604% | -13.2% | 16.92% | -1.426% | -15.38%
Cc1cc(-c2nn3c(C4CC4)nnc3s2)on1 | 14.75% | 0.3187% | 10.44% | 2.885% | 23.58%
c1cnc(OCc2nnc3n2CCN(CC2CCOCC2)C3)nc1 | 1.474% | 17.97% | 13.96% | 5.143% | 1.962%
CCCn1ncc(CN(CCN(C)C)Cc2ccsc2)c1C | -8.83% | -1.321% | -16.69% | -3.088% | -8.473%
CCCC(=O)NC1CCN(c2ccccc2S(=O)(=O)CC)CC1 | 0.3006% | -8.378% | -17.68% | -0.7645% | 2.776%
NCCn1nc(C2CCN(Cc3ccc(Cl)c(Cl)c3)C2)c2nccnc21 (configuration not stated) | -7.543% | 52.46% | -39.96% | 1.814% | 31.33%
O=C(O)C(F)(F)F.O=C(O)C(F)(F)F.[H][C@@]12C[C@@H](OCc3ccccc3)CN1CCN(Cc1nccn1C)C2 | - | 16.9% | - | - | 14.82%
O=C(CCc1cn[nH]c1)N1CCC(C2CCN(c3ncccn3)CC2)C1 (configuration not stated) | -6.615% | 2.484% | -14.52% | 2.435% | 1.027%
[H][C@@]12CCN(Cc3ccc(C)s3)C[C@]1(C(=O)N1CCCO1)CCO2 | - | 15.18% | - | - | 3.432%
COc1ccccc1CCNS(=O)(=O)N1CCOCC1 | 19.33% | -11.82% | -11.04% | -0.352% | -4.537%
Cc1csc(CN(C)c2cc(C)nc3c(C)c(C)nn23)n1 | -9.104% | -13.15% | 15.71% | -0.9236% | -0.3014%
Cc1cnc(N2CCN(C)CC2)nc1-c1ccnn1C | -11.17% | -10.77% | 4.235% | 1.27% | 5.463%
CC(C)(C)c1ccc(CN2C[C@H]3C[C@H](O)C[C@H]3C2)c(OCC(N)=O)c1 | 2.615% | - | 2.96% | -0.3699% | -
CC(C(=O)N1CCc2ccccc2C1)N(C)Cc1cscn1 (configuration not stated) | -7.373% | 12.86% | - | 9.225% | 0.8269%
CO[C@H]1CCN(C(=O)c2ccsc2)[C@@H]2CN(CC3CC3)C[C@H]12 | -5.415% | - | -12.46% | 2.506% | -
CNS(=O)(=O)c1cccc(C(C)NCc2nccn2C(C)C)c1 (configuration not stated) | 13.29% | 21.26% | -5.648% | -2.396% | -6.273%
O=C1N(C2CCCCC2)C[C@H]2CN(C3CCC3)CCN12 | -13.04% | - | 5.318% | -0.2229% | -
[H][C@@]12CCN(C)[C@]1([H])CN(C(=O)c1ccc3sc4c(c3c1)CCNC4=O)C2 | - | 4.332% | - | - | -6.083%
[H][C@@]12CS(=O)(=O)C[C@]1([H])N(C(=O)c1ccc3nc(C)oc3c1)CCN2CCO | - | -1.933% | - | - | 20.47%
CC[C@H]1N(CC2CCC2)CCC[C@]12CCC(=O)N2Cc1ccncc1.O=C(O)C(F)(F)F.O=C(O)C(F)(F)F | - | 6.476% | - | - | 9.504%

Once more, the final 4:

SMILES	ClpP1P2	Leishmania in macrophages	Pks13 thioesterase	PfKRS1	Toxoplasma
O=C1N(C2CCCCC2)C[C@H]2CN(C3CCC3)CCN12	-13.04%	-	5.318%	-0.2229%	-
[H][C@@]12CCN(C)[C@]1([H])CN(C(=O)c1ccc3sc4c(c3c1)CCNC4=O)C2	-	4.332%	-	-	-6.083%
[H][C@@]12CS(=O)(=O)C[C@]1([H])N(C(=O)c1ccc3nc(C)oc3c1)CCN2CCO	-	-1.933%	-	-	20.47%
CC[C@H]1N(CC2CCC2)CCC[C@]12CCC(=O)N2Cc1ccncc1.O=C(O)C(F)(F)F.O=C(O)C(F)(F)F	-	6.476%	-	-	9.504%

Data taken from ChEMBL document CHEMBL3988442, “University of Dundee, Small-Polar-MMV Screening Library” (2021).